PubChem BioAssay AID652272, Drosophila RNAi Screening Center | 2013

Aim: 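Finding fly genes that regulate Hedgehog signal transduction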 (primary screen)
System: Drosophila clone 8 (Cl8) cells
Knock-down reagent: long dsRNA against Drosophila genes
Measurement: 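Plate reader light from a firefly reporter under a ptc promoter fragment that responds to Hedgehog, with Renilla light as transfection reference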
Reading the numbers: firefly Hh reporter signal: higher = more ptc reporter light; Renilla reference signal: higher = more Renilla control light
Hit rule: 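Hit when the z-score averaged over two replicates is under -2 or over +3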
Meaning of the calls: active = hit: reporter lowered or raised; inactive = not a hit
In all, the deposit lists about 21,000 reagents; this is a random part of those that have a named target and a result. Of all reagents, 503 (2.4%) were called active. 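Raw plate light values, not normalised; calls rest on replicate z-scores that were not deposited; hits include reporter decreases as well as increases.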 Reagents against one gene are numbered here. The record does not give: the amount of reagent, the time to read-out.

no.	Gene	reagent no.	firefly Hh reporter signal, replicate 1	firefly Hh reporter signal, replicate 2	Renilla reference signal, replicate 1	Renilla reference signal, replicate 2	Call
1	Ir75a	1	86091		4731	2613	inactive
2	CG10343	1	70333	38137	1050	3552	inactive
3	CG6481	1	64481	1.43e5	2076	6224	inactive
4	CG17782	1	4.79e5	58888	25619	2330	inactive
5	CG15657	1	71270	93298	1461	7669	inactive
6	CG10904	1	1.08e5	68167	3107	5639	inactive
7	chas	1	97105	2.19e5	3488	8387	inactive
8	chas	2	1.02e5	2.49e5	3776	9879	inactive
9	CG31897	1	4.85e5	1.67e5	23853	7233	inactive
10	CG31279	1	50519	2.56e5	10836	5258	inactive
11	CG4363	1	79243	47884	2385	4869	inactive
12	CCHa1	1	55440	54049	1302	1234	inactive
13	skl	1	1.36e5		4461	3668	inactive
14	Cep97	1	1.00e5	91081	4009	3936	inactive
15	KrT95D	1	1.09e5	50525	4384	2123	inactive
16	CG18294	1	1.61e5	1.52e5	6102	3655	inactive
17	thoc7	1	65243	44700	3196	2512	inactive
18	fiz	1	1.76e5	1.20e5	4117	3367	inactive
19	CG1789	1	89505	60596	2326	1658	inactive
20	CG32986	1	93921	53569	2763	4861	inactive
21	CG42680	1	1.65e5	3.00e5	4793	14666	inactive
22	Nlp	1	72229	54520	2608	2304	inactive
23	GstE1	1	89821	46677	2561	4221	inactive
24	CG13727	1	1.95e5		2869	5725	inactive
25	CG1979	1	95971	61721	4065	2360	inactive
26	CG17593	1	1.37e5	75394	3467	7545	inactive
27	Tat	1	68821	1.36e5	1314	5961	inactive
28	eIF3a	1	48325	74381	2243	2636	inactive
29	Ugt37D1	1	83937	59370	2187	5319	inactive
30	MrgBP	1	85608	42243	2192	4135	inactive
31	CG13198	1	82137	41872	1976	4027	inactive
32	Peritrophin-15b	1	1.07e5	79196	2388	7525	inactive
33	CG43288	1	5.29e5	2.30e5	23338	5045	inactive
34	Vha14-2	1	95876	1.07e5	3565	3104	inactive
35	CG18748	1	51129	1.22e5	1920	3525	inactive
36	Egfrap	1	55804	39345	4896	2938	inactive
37	Egfrap	2	45197	39001	4976	3171	inactive
38	GstE8	1	1.28e5	1.07e5	6528	4608	inactive
39	Tango8	1	63436	32513	1665	2199	inactive
40	CG32444	1	91570	1.10e5	4401	4019	inactive
41	rdog	1	72999	89313	1696	2490	inactive
42	CG13437	1	69376	51808	2464	3906	inactive
43	CG12620	1	87883	59377	2288	5780	inactive
44	CG8891	1	1.37e5	66659	3469	5688	inactive
45	CG3918	1	50470	34147	1372	771	inactive
46	CG7991	1	76517	46102	2422	3196	inactive
47	CG13654	1	4.96e5	79127	26756	6160	inactive
48	NiPp1	1	1.26e5	72372	5677	3019	inactive
49	Top3alpha	1	83649	43642	2112	3707	inactive
50	Gpat4	1	1.39e5	71473	4763	3254	inactive
51	Lar	1	1.46e5	2.77e5	4240	13207	inactive
52	Lar	2	87648	59097	3512	2928	inactive
53	zetaTry	1	97444	53027	2348	3952	inactive
54	mRpL13	1	91974	86928	2522	6635	inactive
55	retn	1	89814	63168	2263	5464	inactive
56	Ranbp21	1	1.00e5	72627	1996	1755	inactive
57	TfIIFalpha	1	70922	48199	2651	1792	inactive

Part of the list above, set out differently:
Egfrap #1: firefly Hh reporter signal, replicate 1 = 55804; firefly Hh reporter signal, replicate 2 = 39345; Renilla reference signal, replicate 1 = 4896; Renilla reference signal, replicate 2 = 2938; Call = inactive
Egfrap #2: firefly Hh reporter signal, replicate 1 = 45197; firefly Hh reporter signal, replicate 2 = 39001; Renilla reference signal, replicate 1 = 4976; Renilla reference signal, replicate 2 = 3171; Call = inactive
GstE8: firefly Hh reporter signal, replicate 1 = 1.28e5; firefly Hh reporter signal, replicate 2 = 1.07e5; Renilla reference signal, replicate 1 = 6528; Renilla reference signal, replicate 2 = 4608; Call = inactive
Tango8: firefly Hh reporter signal, replicate 1 = 63436; firefly Hh reporter signal, replicate 2 = 32513; Renilla reference signal, replicate 1 = 1665; Renilla reference signal, replicate 2 = 2199; Call = inactive
